Measured values taken from PubChem BioAssay AID720504 (National Center for Advancing Translational Sciences (NCATS), 2013).
Out of some 360,000 compounds screened, about 10,000 (2.8%) were called active. Inconclusive results, whose numbers are uncertain, are shown with a selection of clear calls. Calls follow the shape of the dose curve; as a rule, active = well fitted inhibition curve with a large enough effect; inconclusive = small, poorly fitted or top-dose-only effect; inactive = flat fitted curve, though single readings scatter. Potencies of inconclusive entries are doubtful fits and often do not repeat.

Amino acid sequences for entries named in this document (tags omitted).
UniProt P53350, whole entry, looked up: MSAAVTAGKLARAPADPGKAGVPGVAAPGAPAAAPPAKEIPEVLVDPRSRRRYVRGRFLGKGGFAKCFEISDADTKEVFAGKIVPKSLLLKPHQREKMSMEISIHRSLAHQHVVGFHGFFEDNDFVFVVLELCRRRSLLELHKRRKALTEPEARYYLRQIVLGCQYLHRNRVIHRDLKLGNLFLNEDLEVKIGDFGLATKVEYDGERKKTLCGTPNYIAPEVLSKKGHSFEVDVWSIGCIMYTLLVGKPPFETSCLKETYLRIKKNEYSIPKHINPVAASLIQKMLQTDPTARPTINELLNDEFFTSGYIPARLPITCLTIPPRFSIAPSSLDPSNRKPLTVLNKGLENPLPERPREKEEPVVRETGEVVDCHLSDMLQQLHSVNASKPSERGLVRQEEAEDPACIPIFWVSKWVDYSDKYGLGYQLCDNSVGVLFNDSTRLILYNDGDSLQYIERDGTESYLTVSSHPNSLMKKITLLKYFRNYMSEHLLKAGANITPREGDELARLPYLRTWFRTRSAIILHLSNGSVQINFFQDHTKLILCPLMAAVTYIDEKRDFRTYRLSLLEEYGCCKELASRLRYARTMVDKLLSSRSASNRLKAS

Each compound was assayed against Serine/threonine-protein kinase PLK1 (Homo sapiens) (UniProt P53350) (assay: qHTS for Inhibitors of PLK1-PDB (polo-like kinase 1 - polo-box domain): Primary Screen). Conditions: Plk1 PBD binding of FITC phosphopeptide, fluorescence polarization.
% is scaled to controls: 0 for no effect and ±100 for the full control effect; potency is read from the fitted curve at half-maximal effect.
Also: nearly all actives have a fitted effect of over 65% in size.
For max response, negative = inhibition in this document: series mostly up to about 57 µM.

Question: For `CC(C)NC(=O)c1ccccc1NC(=O)C1COc2ccccc2O1` (stereo unspecified), which Potency is on record?
Answer: The Potency was active: 26.7 µM.

Question: For `CCOC(=O)/C=C/C(=O)OCC(=O)Nc1ccc(Cl)cc1Cl`, which Potency is on record?
Answer: Its Potency is inconclusive: 23.8 µM [inhibitor, partial curve].

Question: Which Potency does the source give for `CCc1ccccc1N1CSC2=C(C#N)C(c3ccccc3F)CC(=O)N2C1` (stereo unspecified) here?
Answer: Its Potency is active: 18.9 µM.

Question: With `FC(F)(F)c1ccc(-c2cccc3c2C2CC3CCN2Cc2ccc3c(c2)OCO3)cc1` (stereo unspecified) as the compound, how does the max response, negative = inhibition read?
Answer: Its max response, negative = inhibition is inactive: 0.457%.

Question: How did the Potency turn out when `CCN(CC)S(=O)(=O)c1ccc(N2CCOCC2)c(NC(=O)CCC2CCCCC2)c1` was run?
Answer: The Potency was inconclusive: 29.9 µM [inhibitor, partial curve].

Question: With `CCCc1nnc(NC(=O)C2CC(=O)N(C3CCCC3)C2)s1` (stereo unspecified) as the compound, how does the Potency read?
Answer: The Potency was inconclusive: 21.2 µM [inhibitor, partial curve].

Question: `CNC(=O)CCSSCCC(=O)NC` was tested. Which Potency did it give?
Answer: The Potency was inconclusive: 18.9 µM [inhibitor, single point].

Question: Which Potency does the source give for `Cc1c(C(=O)NCCCN2CCOCC2)oc2ccc(S(=O)(=O)N3CCOCC3)cc12` here?
Answer: The Potency was inconclusive: 21.2 µM [inhibitor, partial curve, poor fit].

Question: Which Potency does the source give for `CCc1nc2cccnc2n1-c1ccc(C(=O)O)cc1` here?
Answer: Its Potency is inconclusive: 23.8 µM [inhibitor, partial curve].

Question: How did the max response, negative = inhibition turn out when `O=C(N/N=C/c1ccoc1)c1cccc([N+](=O)[O-])c1` was run?
Answer: The max response, negative = inhibition was inactive: -2.52%.

Question: For `OC1CCN(Cc2cccc(Oc3ccccc3)c2)CC1`, which max response, negative = inhibition is on record?
Answer: The max response, negative = inhibition was inactive: -17.6%.

Question: With `Cc1cc(C)c(S(C)(=O)=O)c(Oc2ccc(C(C)(C)C)cc2)n1` as the compound, how does the max response, negative = inhibition read?
Answer: The max response, negative = inhibition was inactive: -6.92%.

Question: With `COc1ccc(/C=N/NC2=NS(=O)(=O)c3ccccc32)cc1OC` as the compound, how does the max response, negative = inhibition read?
Answer: The max response, negative = inhibition was inactive: -1.86%.

Question: `COc1ccc(CCc2ccnc3ccccc23)cc1` was tested. Which max response, negative = inhibition did it give?
Answer: The max response, negative = inhibition was inactive: -4.91%.

Question: With `CC(C)OCCc1cccc[n+]1[O-]` as the compound, how does the max response, negative = inhibition read?
Answer: The max response, negative = inhibition was inactive: -13.6%.

Question: `CCS(=O)(=O)Nc1cc(C(=O)OC)ccc1C(=O)OC` was tested. Which Potency did it give?
Answer: Its Potency is inconclusive: 25.1 µM [inhibitor, partial curve].

Question: `COc1ccc2nc(SCC(=O)Nc3ccccc3)[nH]c2c1` was tested. Which Potency did it give?
Answer: Its Potency is inconclusive: 26.7 µM [inhibitor, single point].

Question: How did the Potency turn out when `O=C(Nc1ccccc1)C1=C[C@H](c2ccc(C(F)(F)F)cc2)C[C@H](OCCCCO)O1` was run?
Answer: The Potency was inconclusive: 21.2 µM [inhibitor, single point].

Question: Which Potency does the source give for `CCO[C@H]1OC(C(=O)O)=C[C@@H](C2CCCCC2)[C@@H]1CCCO` here?
Answer: The Potency was inconclusive: 37.7 µM [inhibitor, single point].

Question: Which Potency does the source give for `CN(C)CC1CCC/C(=C/c2ccc(Cl)cc2)C1=O` (stereo unspecified) here?
Answer: Its Potency is active: 5.97 µM.

Question: Which Potency does the source give for `Clc1ccc(-c2nn3c(-c4ccccc4)nnc3s2)cc1` here?
Answer: The Potency was inconclusive: 29.9 µM [inhibitor, partial curve].
